Experimental findings from article PMC10318529 are described below.

Chains of the proteins cited; added tags and fusions are not shown. Lines headed by an entry give the natural chain unless they say otherwise; changes in a name come on top.
UniProt P12643: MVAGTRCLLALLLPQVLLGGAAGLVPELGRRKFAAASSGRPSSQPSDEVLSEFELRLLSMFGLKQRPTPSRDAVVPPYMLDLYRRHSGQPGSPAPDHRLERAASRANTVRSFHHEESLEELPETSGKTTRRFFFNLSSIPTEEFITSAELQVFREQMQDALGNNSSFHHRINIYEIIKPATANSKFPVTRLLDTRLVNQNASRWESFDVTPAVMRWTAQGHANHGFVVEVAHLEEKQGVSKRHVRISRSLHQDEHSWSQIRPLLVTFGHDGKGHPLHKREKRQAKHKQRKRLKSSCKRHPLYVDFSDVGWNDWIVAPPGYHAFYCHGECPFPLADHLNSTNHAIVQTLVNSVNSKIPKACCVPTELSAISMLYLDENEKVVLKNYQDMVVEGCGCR

These are yes or no findings as the source states them, for the method shown. In cells and extracts the contact can be indirect. Binding can be weak; no strength is given.

The target of the test is T1, Matrix Gla protein (human (endogenous in bone marrow MSCs)) (UniProt P08493).
T1 sequence: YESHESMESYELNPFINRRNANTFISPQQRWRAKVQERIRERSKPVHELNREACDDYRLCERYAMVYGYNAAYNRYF
Description: co-IP; MSCs lysates in IP lysis buffer with 1% PMSF and phosphatase inhibitor; incubated overnight at 4 °C with antibodies against APPL1, MGP, BMP2 or IgG controls; Dynabeads Protein G, 3 h at 4 °C; Western blot. (Immunoblotting shows a protein as a band on a membrane.)

As for BMP2 (from UniProt P12643), the binding entry is “binds”.
